Holding throughout (experiment): EMSA
Details in all cases: 5 mM Mg2+, 1 g/L yeast tRNA

The target of one series is T1, SRSF2 RRM K36N (human) (UniProt Q01130).
T1 sequence (looked up, limits assumed): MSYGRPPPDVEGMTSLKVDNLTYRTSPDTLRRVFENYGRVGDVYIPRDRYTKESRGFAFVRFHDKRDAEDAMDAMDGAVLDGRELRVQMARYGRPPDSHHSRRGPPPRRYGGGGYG

For the next series, the target named is T2, SRSF2 RRM S26L (human) (UniProt Q01130).
T2 sequence (looked up, limits assumed): T1 sequence (looked up, limits assumed) with S26L, N36K

In another series the target is T3, SRSF2 RRM P95H (human) (UniProt Q01130).
T3 sequence (looked up, limits assumed): T1 sequence (looked up, limits assumed) with N36K, P95H

A further series has as its target T4, SRSF2 RRM WT (human) (UniProt Q01130).
T4 sequence (looked up, limits assumed): T1 sequence (looked up, limits assumed) with N36K

Numbering of substitutions follows the chain as printed. For at least one entry, the source does not settle the construct or the ends of the probe. For some of these results: Weaker means in comparison with the reference protein, sequence or condition of that experiment. For some of these results: At least one verdict was read from the data and is not stated in words by the source. Where a protein sequence is shown, tags need not be part of it.

Consider UUAACAAUUGGAGUC [5' fluoro MELK], for which the binding result was “binds more weakly” with SRSF2 RRM K36N (human), “binds more weakly” with SRSF2 RRM S26L (human), “binds more weakly” in the series with SRSF2 RRM P95H (human) and “binds” with SRSF2 RRM WT (human).

(Values after doi:10.1101/2025.04.02.646914.)
